# Measurements: PubChem BioAssay (NCATS)
# Several values for one entry are separate records, joined by “and”; a condition that tells them apart may be missing. Equal entries are not always repeated. The inconclusive results got no clear call from the source; some entries with a clear call stand among them for comparison. A potency beside an inconclusive call is a rough fit, not a confirmed value. Activity calls are given as the source filed them. Calls come from the whole dose curve; as a rule, active = well fitted cell-killing curve with a large enough effect; inconclusive = small, poorly fitted or top-dose-only effect; inactive = no such curve, though single readings can be large or run the other way.
# Test: qHTS of pediatric cancer cell lines to identify multiple opportunities for drug repurposing: Confirmatory screen for U-2 OS cells (AID 1347122); note: nearly all actives have a fitted effect of over 65% in size
# Details: U-2 OS osteosarcoma cell viability; series mostly up to 45.9 µM; activity change, negative = cytotoxicity: at the top concentration
# Method in brief: (§1)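 Cells (500-1,000/well) in growth media were settled 5 h at 37 degrees C, then given compounds for 48 h. Viability was read as CellTiter-Glo luminescence. Primary runs used MIPE at 11 points (0.78 nM-46 µM) and NPC at 8 points (0.59 nM-46 µM); follow-ups used 11 points.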
# Potency is the fitted concentration of half-maximal effect.
row,Compound,Potency
1,CNC(=O)c1cc(Oc2ccc(NC(=O)Nc3ccc(Cl)c(C(F)(F)F)c3)cc2)ccn1,"inconclusive: 13.1 µM [cytotoxic, partial curve, poor fit]"
2,COc1cc2c(cc1OC)[C@@H]1C(=O)c3ccc4c(c3O[C@@H]1CO2)C=CC(C)(C)O4,active: 0.329 µM
3,Nc1nc(F)nc2c1ncn2[C@@H]1O[C@H](CO)[C@@H](O)[C@@H]1O,"inconclusive: 1.47 µM [cytotoxic, full curve, poor fit]"
4,Cc1[nH]nc2ccc(-c3cncc(OC[C@@H](N)Cc4ccccc4)c3)cc12,"inconclusive: 6.76 µM [cytotoxic, full curve, poor fit]"
5,O=C(CC12CC3CC(CC(C3)C1)C2)Nc1cccc2nc(NCCNCCO)ccc12,"inconclusive: 36.9 µM [cytotoxic, single point]"
6,COc1cccc2c1C(=O)c1c(O)c3c(c(O)c1C2=O)C[C@@](O)(C(=O)CO)C[C@@H]3O[C@H]1C[C@H](N)[C@@H](O)[C@H](C)O1,"inconclusive: 9.27 µM [cytotoxic, full curve, poor fit]"
7,O=c1[nH]nc(OCCCc2ccc(Cl)cc2)c(NCc2cccnc2)c1Br,active: 7.37 µM
8,Cc1cnc(Nc2ccc(N3CCN(C)CC3)cc2)nc1Nc1cccc(S(=O)(=O)NC(C)(C)C)c1,"inconclusive: 2.33 µM [cytotoxic, full curve, poor fit]"

# Of the compounds above, 2 contain fluorine.
row,Compound,Potency
1,CNC(=O)c1cc(Oc2ccc(NC(=O)Nc3ccc(Cl)c(C(F)(F)F)c3)cc2)ccn1,"inconclusive: 13.1 µM [cytotoxic, partial curve, poor fit]"
3,Nc1nc(F)nc2c1ncn2[C@@H]1O[C@H](CO)[C@@H](O)[C@@H]1O,"inconclusive: 1.47 µM [cytotoxic, full curve, poor fit]"

# Test: qHTS of pediatric cancer cell lines to identify multiple opportunities for drug repurposing: Confirmatory screen for Rh41 cells (AID 1347123);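 note: 48 h compound exposure; nearly all actives have a fitted effect of over 60% in size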;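 for activity change, negative = cytotoxic: plate controls were DMSO for no effect and bortezomib for full effect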
# Details: Rh41 rhabdomyosarcoma cells, viability/cytotoxicity qHTS; series mostly up to 45.9 µM; activity change, negative = cytotoxic: at the top concentration
# Method in brief: as §1
Compound,Potency,"activity change, negative = cytotoxic"
CNC(=O)c1cc(Oc2ccc(NC(=O)Nc3ccc(Cl)c(C(F)(F)F)c3)cc2)ccn1,"inconclusive: 14.7 µM [cytotoxic, partial curve, poor fit]",
COc1ccc2c(c1OC)C(=O)OC2[C@H]1c2c(cc3c(c2OC)OCO3)CCN1C (stereo not given in full),"inconclusive: 26.1 µM [cytotoxic, single point]",
CC1(C)OC2CC3C4CC(F)C5=CC(=O)C=CC5(C)C4C(O)CC3(C)[C@]2(C(=O)CO)O1 (stereo not given in full),"inconclusive: 14.7 µM [cytotoxic, partial curve, poor fit]",
Nc1nc(F)nc2c1ncn2[C@@H]1O[C@H](CO)[C@@H](O)[C@@H]1O,"inconclusive: 8.27 µM [cytotoxic, partial curve, poor fit] and inconclusive: 928 nM [cytotoxic, full curve, poor fit]",
COc1ccc(-c2ccc3ncc4c(c3c2)n(-c2ccc(N3CCNCC3)c(C(F)(F)F)c2)c(=O)n4C)cn1,active: 0.0585 µM,
Cc1[nH]nc2ccc(-c3cncc(OC[C@@H](N)Cc4ccccc4)c3)cc12,"inconclusive: 3.39 µM [cytotoxic, full curve, poor fit]",
N#Cc1c(NC(=O)c2cccc3ccccc23)sc2c1CCCC2,"inconclusive: 0.827 µM [cytotoxic, full curve]",
CC(C)[C@H](C(=O)Nc1ccc(C(=O)NO)cc1)c1ccccc1,active: 1.17 µM,
CN[C@@H]1CN(c2ccc3c(=O)c(C(=O)O)cn(-c4nccs4)c3n2)C[C@@H]1OC,"inconclusive: 10.2 µM [cytotoxic, partial curve, poor fit]",
Nc1ncn([C@H]2C[C@H](O)[C@@H](CO)O2)c(=O)n1,,inactive: 14.6%
C[C@H](c1ccc(F)cc1CCCC(=O)O)N(c1cc(F)ccc1F)S(=O)(=O)c1ccc(Cl)cc1,,inactive: -22.6%
Cc1cnc(Nc2ccc(N3CCN(C)CC3)cc2)nc1Nc1cccc(S(=O)(=O)NC(C)(C)C)c1,active: 3.29 µM,
FC(F)(F)c1ccc(C=Cc2nc(COc3ccc(CCCCn4ccnn4)cc3)co2)cc1,"inconclusive: 0.293 µM [cytotoxic, full curve]",
COc1cc2c(cc1OC)[C@@H]1Cc3ccc(OC)c(OC)c3CN1CC2,"inconclusive: 16.5 µM [cytotoxic, partial curve]",
CC(C)(N)c1ccc(-c2nc3ccccc3nc2-c2ccccc2)cc1,"inconclusive: 11.7 µM [cytotoxic, full curve, poor fit]",
CC(=O)O[C@H]1C(=O)[C@@]2(C)C([C@H](OC(=O)c3ccccc3)[C@]3(O)C[C@H](OC(=O)[C@H](O)[C@@H](NC(=O)c4ccccc4)c4ccccc4)C(C)=C1C3(C)C)[C@]1(OC(C)=O)CO[C@@H]1C[C@@H]2O (stereo not given in full),active: 0.0104 µM,
Nc1nc(N)nc(-c2cc(Cl)ccc2Cl)n1,"inconclusive: 4.27 µM [cytotoxic, partial curve]",
COc1ccc(C(C)=O)c(O)c1,,inactive: 0%
O=S(=O)(O)CCS,,inactive: -3.89%
COc1cc(CNC(=O)CCCCC=CC(C)C)ccc1O,"inconclusive: 20.8 µM [cytotoxic, single point]",
CS(=O)(=O)Nc1ccc([N+](=O)[O-])cc1Oc1ccccc1,active: 18.5 µM,
CC(C)(C)c1cc(C(C)(C)C)c(NC(=O)c2c[nH]c3ccccc3c2=O)cc1O,"inconclusive: 36.9 µM [cytotoxic, single point]",
